Consider two molecules from PMC10664664.

Assay [1] concerns the target T1, aldolase A (ALDOA) (human (endogenous in MIA PaCa-2)) (UniProt P04075).
T1 sequence: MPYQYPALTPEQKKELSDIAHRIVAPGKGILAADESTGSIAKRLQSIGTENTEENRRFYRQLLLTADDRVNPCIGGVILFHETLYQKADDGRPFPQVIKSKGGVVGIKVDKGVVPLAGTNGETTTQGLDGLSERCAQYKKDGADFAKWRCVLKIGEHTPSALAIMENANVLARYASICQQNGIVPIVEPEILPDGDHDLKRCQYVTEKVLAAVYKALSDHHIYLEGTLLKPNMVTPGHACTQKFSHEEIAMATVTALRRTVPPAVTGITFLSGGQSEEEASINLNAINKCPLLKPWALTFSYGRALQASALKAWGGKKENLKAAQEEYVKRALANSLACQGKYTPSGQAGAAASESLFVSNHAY
The assay is described as follows: co-IP; lysates in IGEPAL CA-630 buffer, ALDOA antibody and protein A/G beads overnight at 4 °C, immunoblot; MIA PaCa-2 cells transfected with the NC or OE-LIPH vectors. (In western blotting, separated proteins are transferred to a membrane and probed.)

In assay [2] the target is T2, LIPH (Lipase H), full-length human cDNA overexpressed (OE-LIPH) (human) (UniProt Q8WWY8).
T2 sequence: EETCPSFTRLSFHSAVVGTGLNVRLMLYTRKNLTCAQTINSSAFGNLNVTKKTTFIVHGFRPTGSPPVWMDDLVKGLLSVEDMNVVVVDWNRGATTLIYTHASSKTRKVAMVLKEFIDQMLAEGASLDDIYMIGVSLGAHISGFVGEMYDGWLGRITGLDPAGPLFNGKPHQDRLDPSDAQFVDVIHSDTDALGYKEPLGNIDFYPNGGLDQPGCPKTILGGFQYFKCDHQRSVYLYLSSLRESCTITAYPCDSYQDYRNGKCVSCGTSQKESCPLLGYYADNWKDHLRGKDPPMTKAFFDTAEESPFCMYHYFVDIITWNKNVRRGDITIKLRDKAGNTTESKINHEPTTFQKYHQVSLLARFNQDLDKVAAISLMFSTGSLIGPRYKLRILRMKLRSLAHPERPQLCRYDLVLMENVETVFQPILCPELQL
As to the kind of experiment: co-IP; lysates in IGEPAL CA-630 buffer, FLAG antibody and protein A/G beads overnight at 4 °C, immunoblot for ALDOA; MIA PaCa-2 cells with NC or OE-LIPH vector.

These are yes or no findings as the source states them, for the method shown. In cells and extracts the contact can be indirect. Some entries that bind do so weakly or less than the wild type.

B1: UBE2O, an E2/E3 hybrid ubiquitin-protein ligase (enzyme, UniProt Q9C0C9 1-1292)
chain: MADPAAPTPAAPAPAQAPAPAPEAVPAPAAAPVPAPAPASDSASGPSSDSGPEAGSQRLLFSHDLVSGRYRGSVHFGLVRLIHGEDSDSEGEEEGRGSSGCSEAGGAGHEEGRASPLRRGYVRVQWYPEGVKQHVKETKLKLEDRSVVPRDVVRHMRSTDSQCGTVIDVNIDCAVKLIGTNCIIYPVNSKDLQHIWPFMYGDYIAYDCWLGKVYDLKNQIILKLSNGARCSMNTEDGAKLYDVCPHVSDSGLFFDDSYGFYPGQVLIGPAKIFSSVQWLSGVKPVLSTKSKFRVVVEEVQVVELKVTWITKSFCPGGTDSVSPPPSVITQENLGRVKRLGCFDHAQRQLGERCLYVFPAKVEPAKIAWECPEKNCAQGEGSMAKKVKRLLKKQVVRIMSCSPDTQCSRDHSMEDPDKKGESKTKSEAESASPEETPDGSASPVEMQDEGAEEPHEAGEQLPPFLLKEGRDDRLHSAEQDADDEAADDTDDTSSVTSSASSTTSSQSGSGTSRKKSIPLSIKNLKRKHKRKKNKITRDFKPGDRVAVEVVTTMTSADVMWQDGSVECNIRSNDLFPVHHLDNNEFCPGDFVVDKRVQSCPDPAVYGVVQSGDHIGRTCMVKWFKLRPSGDDVELIGEEEDVSVYDIADHPDFRFRTTDIVIRIGNTEDGAPHKEDEPSVGQVARVDVSSKVEVVWADNSKTIILPQHLYNIESEIEESDYDSVEGSTSGASSDEWEDDSDSWETDNGLVEDEHPKIEEPPIPPLEQPVAPEDKGVVISEEAATAAVQGAVAMAAPMAGLMEKAGKDGPPKSFRELKEAIKILESLKNMTVEQLLTGSPTSPTVEPEKPTREKKFLDDIKKLQENLKKTLDNVAIVEEEKMEAVPDVERKEDKPEGQSPVKAEWPSETPVLCQQCGGKPGVTFTSAKGEVFSVLEFAPSNHSFKKIEFQPPEAKKFFSTVRKEMALLATSLPEGIMVKTFEDRMDLFSALIKGPTRTPYEDGLYLFDIQLPNIYPAVPPHFCYLSQCSGRLNPNLYDNGKVCVSLLGTWIGKGTERWTSKSSLLQVLISIQGLILVNEPYYNEAGFDSDRGLQEGYENSRCYNEMALIRVVQSMTQLVRRPPEVFEQEIRQHFSTGGWRLVNRIESWLETHALLEKAQALPNGVPKASSSPEPPAVAELSDSGQQEPEDGGPAPGEASQGSDSEGGAQGLASASRDHTDQTSETAPDASVPPSVKPKKRRKSYRSFLPEKSGYPDIGFPLFPLSKGFIKSIRGVLTQFRAALLEAGMPECTEDK
With B1, the binding entry in assay [1] was “binds”.

B2: aldolase A (ALDOA) (enzyme, UniProt P04075 1-364)
chain: T1 sequence
Turning to B2, the binding entry in assay [2] is given as “binds”.
